Measured values from publication PMC7948500, “Comparative interactomes of HSF1 in stress and disease reveal a role for CTCF in HSF1-mediated gene regulation” (The Journal of Biological Chemistry, 2020).
Results are given in words; binding and its absence hold for the method and conditions named. In cells and extracts the contact can be indirect. A yes stands for co-enrichment or nearness to the bait. Other partners may have been found. One block for each binder: values may come before it.

Amino acid sequences for entries named in this document (tags omitted).
UniProt P38532: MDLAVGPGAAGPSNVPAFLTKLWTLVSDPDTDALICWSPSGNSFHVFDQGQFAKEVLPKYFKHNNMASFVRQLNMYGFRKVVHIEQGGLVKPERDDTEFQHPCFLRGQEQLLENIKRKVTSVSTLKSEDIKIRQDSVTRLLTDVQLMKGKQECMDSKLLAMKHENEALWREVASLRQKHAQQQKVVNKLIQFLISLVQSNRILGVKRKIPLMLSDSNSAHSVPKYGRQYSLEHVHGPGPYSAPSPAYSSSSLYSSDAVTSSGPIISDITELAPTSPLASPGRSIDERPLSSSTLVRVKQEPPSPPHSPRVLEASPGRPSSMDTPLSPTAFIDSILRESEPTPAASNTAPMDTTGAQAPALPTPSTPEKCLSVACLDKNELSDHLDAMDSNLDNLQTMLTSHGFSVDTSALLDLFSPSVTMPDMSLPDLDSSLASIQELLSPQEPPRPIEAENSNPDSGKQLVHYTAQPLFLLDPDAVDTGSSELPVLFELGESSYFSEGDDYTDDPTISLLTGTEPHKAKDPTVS

Target: heat shock transcription factor 1 (endogenous, mouse striatal cells) (mouse (endogenous in STHdh striatal cells)) (UniProt P38532)
Assay: affinity purification with mass spectrometry; endogenous untagged HSF1 immunoprecipitated with polyclonal anti-HSF1 covalently linked to DynaG beads from STHdh Q7 (control), Q7 heat shock (42 °C, 30 min) and Q111 (HD) lysates, no cross-linker; IgG IP as control; hits at least twofold over IgG, p < 0.05, ProteinTeller probability >= 0.8; quantitative LC-MS/MS

- binding: binds
B1: structural maintenance of chromosomes protein 6 (protein, UniProt Q924W5 1-1097)
chain: MAKRKEENFCSPENAKRPRQEELEDFDKDGDEDECTISFTNGTSTLTAAEVGIIESIQLRNFMCHSMLGPFKFGSNVNFVVGNNGSGKSAVLTALIVGLGGKAVATNRGSSLKGFVKAGQNSADISITLRNRGDDAFRANVYGDSIVVQQHISVDGSRSYKLKSEKGTVVSTRKEELIAILDHFNIQVDNPVSVLTQEMSKQFLQSKNEGDKYKFFMKATQLEQMKEDYSYIMETKERTKEQINQGEERLTELKRQCLEKEERFQNIAGLSTMKTNLEYLKHEMAWAVVNEIEKQLNAIRDNIKIGEERAAKLDRKMEEQQVRLNDAEKKYKDIQDKLEKISEETNARAPECMALKTDVIARTRAFNDAEVLYNRSLNEYKALKKDGEQLCKRIEELKKSTDQSLEPERLERQKRICWLKEKVKALQDQEHTVNQEAEQFEQAIEKDKQEHGRVRKEDIEVRHALNYNQRQLKELKDSKTDRLKRFGPHVPALLEAIDDAYRRRQFTHKPIGPLGACIHLRDPELALAIESCLKGLLQAYCCHNHADERVLQSLMKKFYPPGTSRPQIIVSEFRDEVYDVRLRAAYHPEFPTVLTALEIDNAVVANSLIDMRSIETVLLIKNNSVARAVMQSQKPPKNCREAFTADGDQVFAGRYYSSESTRPKFLSRDVDSEISDLETEIENKKGHIITLQQRLSALEKDIKRNEELLKRCQLHYKEIKMKIRKNISEIRELENIEEHQSVDIATLEDEAEENKIKMQMVEKNMEQQKENMENLKSLKIEAENKYDTIKLKINQLSELADPLKDELNLADSEVDSQKRGKQHYEDKQKEHLDTLNKKRRELDMKEKELQEKMSQARQICPERIEVKKSASILDKEINRLRQKIQAEHASHGDREEIMKQYQEARETYLDLDNKVRTLRRFIKLLEEIMTHRYKTYQQFRRCLTLRCKLYFDNLLSQRAYCGKMNFDHKNETLSITVQPGEGNKASFNDMRALSGGERSFSTVCFILSLWSIAESPFRCLDEFDVYMDMVNRRIAMDMILKMADSQRFRQFILLTPQSMSSLPSSKLIRILRMSDPERGQTTLPFRPVTQEEDDSAS

- binding: binds
B2: PAR12 (protein, UniProt Q8BZ20 1-711)
chain: MAQAAVAVAEVTQLLCAAGGALELAELRRRLRTSLGTDALERLLRDCGRFVVASRAVVAVGAGREAAAAASERLVLAVSSLRLCRAHQGPKPGCTGLCAQLHLCKFLIYGNCKFLKTGKNCRNGHNLKTDHNLSVLRTHGVDHLTYTELCQLLLQNDPSLLPDICLHYNKGDGPFGSCSFQKQCIKLHICQYFLQGECKFGTSCKRSHEFTNSESLEQLERLGLSSDLVSRLLSTYRNAYDIKNKGSALSKVSPSPAGPQGSSERKDSSGPVSPGTPSQEESEQICLYHIRKSCSFQEKCHRVHFHLPYRWQFLDGGKWKDLDNMELIEEAYSNPSKDRIVYTESAAGFHFDNLDFNSMKFGNTLARRLSTASSVTKPPHFILTTDWIWYWMDEFGSWQEYGRQGSGHPVTTISSSDVERAYLAFCAPGADAQAATLKFQAGKHNYELHFKAFLQKNLVYGTIRKVCRRPKYVSPQDVQMKQSCNTKLHGPKSIPDYWDPAALPDLGFKKITLSSSSEEYQKVWNIFNRTLPFYFVQKIERIQNMGLWEVYQWQKCQMQKQNGGKEVDERQLFHGTSANFVDAICQQNFDWRVCGLHGTSYGKGSYFARDAAYSHHYSKSDTHSHMMFLARVLVGDFVRGSTSFVRPPAKEGQSNAFYDSCVNSMSDPTIFVVFEKHQVYPEYLIQYSTSSKPPASPSIFVALGNLFTSRQ
